Results are given in words; binding and its absence hold for the method and conditions named. Binding seen in cells or lysates may run through a third protein. Some binding calls cover weakened binding; strength is not graded here. Sequences can lack the tags named with a protein.

Protein sequences, listed by entry. Tags and fused reporters are not part of them.
UniProt Q9NZ08: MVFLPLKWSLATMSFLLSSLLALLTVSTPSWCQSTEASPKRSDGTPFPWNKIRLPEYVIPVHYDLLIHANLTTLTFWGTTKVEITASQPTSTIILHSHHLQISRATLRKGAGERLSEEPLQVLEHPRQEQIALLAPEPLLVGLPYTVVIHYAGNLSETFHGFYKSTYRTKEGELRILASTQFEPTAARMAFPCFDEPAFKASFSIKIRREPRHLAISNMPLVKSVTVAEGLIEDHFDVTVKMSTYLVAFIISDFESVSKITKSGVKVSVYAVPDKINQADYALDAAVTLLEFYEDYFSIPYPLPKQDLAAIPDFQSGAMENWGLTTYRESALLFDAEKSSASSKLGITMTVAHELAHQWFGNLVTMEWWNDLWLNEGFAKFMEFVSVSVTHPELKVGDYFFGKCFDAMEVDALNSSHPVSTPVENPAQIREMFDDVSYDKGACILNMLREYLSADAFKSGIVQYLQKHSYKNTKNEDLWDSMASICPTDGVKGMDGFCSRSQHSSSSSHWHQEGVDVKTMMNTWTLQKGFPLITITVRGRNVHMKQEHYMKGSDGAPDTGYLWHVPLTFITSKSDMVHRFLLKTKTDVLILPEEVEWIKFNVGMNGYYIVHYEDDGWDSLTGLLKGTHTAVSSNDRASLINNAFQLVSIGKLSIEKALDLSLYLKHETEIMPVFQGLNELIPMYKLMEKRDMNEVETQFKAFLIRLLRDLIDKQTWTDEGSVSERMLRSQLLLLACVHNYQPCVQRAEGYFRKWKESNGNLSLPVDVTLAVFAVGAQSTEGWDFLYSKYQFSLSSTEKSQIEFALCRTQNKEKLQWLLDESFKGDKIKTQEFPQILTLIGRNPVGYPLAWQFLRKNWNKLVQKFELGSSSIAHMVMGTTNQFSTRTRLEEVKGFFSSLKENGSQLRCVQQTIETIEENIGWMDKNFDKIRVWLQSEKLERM
UniProt Q16539: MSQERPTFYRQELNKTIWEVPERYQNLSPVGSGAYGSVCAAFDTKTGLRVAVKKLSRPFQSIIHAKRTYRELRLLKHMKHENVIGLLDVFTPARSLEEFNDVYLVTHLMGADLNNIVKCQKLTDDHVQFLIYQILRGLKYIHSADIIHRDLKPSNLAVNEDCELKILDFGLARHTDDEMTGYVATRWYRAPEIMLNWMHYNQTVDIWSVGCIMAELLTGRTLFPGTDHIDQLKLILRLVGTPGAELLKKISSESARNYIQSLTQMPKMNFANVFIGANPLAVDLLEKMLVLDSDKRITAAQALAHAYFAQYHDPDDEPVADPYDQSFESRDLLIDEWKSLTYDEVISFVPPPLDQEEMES

Test [1] addresses T1, HA-iRhom1 (UniProt Q6PIX5).
T1 sequence: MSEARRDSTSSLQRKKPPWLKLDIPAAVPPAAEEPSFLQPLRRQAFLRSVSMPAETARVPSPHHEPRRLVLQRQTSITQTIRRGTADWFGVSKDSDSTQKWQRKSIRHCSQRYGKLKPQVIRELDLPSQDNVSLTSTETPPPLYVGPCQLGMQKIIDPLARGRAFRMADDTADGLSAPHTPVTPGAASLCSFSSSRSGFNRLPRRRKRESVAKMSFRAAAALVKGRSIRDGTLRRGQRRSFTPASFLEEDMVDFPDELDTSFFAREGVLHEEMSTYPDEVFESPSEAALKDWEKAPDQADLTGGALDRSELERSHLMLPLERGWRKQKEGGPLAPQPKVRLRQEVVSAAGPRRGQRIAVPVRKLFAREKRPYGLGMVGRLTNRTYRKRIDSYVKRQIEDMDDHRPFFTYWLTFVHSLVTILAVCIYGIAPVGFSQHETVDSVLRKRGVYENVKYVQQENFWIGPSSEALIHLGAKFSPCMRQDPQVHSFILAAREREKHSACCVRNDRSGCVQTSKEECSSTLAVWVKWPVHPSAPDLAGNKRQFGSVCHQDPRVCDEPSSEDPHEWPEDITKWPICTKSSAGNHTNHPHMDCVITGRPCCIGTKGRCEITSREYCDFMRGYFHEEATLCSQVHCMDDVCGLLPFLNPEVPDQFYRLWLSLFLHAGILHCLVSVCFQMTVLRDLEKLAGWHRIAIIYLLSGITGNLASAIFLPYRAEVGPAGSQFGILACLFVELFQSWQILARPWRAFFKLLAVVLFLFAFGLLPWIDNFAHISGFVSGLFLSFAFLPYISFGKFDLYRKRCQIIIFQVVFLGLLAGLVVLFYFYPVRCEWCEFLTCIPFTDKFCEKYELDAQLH
Briefly: co-IP; lysate of HA-iRhom1 expressing 293T cells (IP lysis buffer, protease and phosphatase inhibitors, about 1 mg protein), anti-HA magnetic beads, immunoblot. On the technique in general: A western blot detects proteins with antibodies after separation by electrophoresis.

The target of test [2] is T1, HA-iRhom1. Put plainly: co-IP; called 'pull-down assay' in the text; Supplementary Fig. 7, cells and bait not shown.

As to ERAP1 (from UniProt Q9NZ08 1-941), the binding entry with HA-iRhom1 [1] was “binds”.
Still for that read-out and setting: the entry for MAPK14 (from UniProt Q16539 1-360) is “binds”.
For p-MAPK14 (from UniProt Q16539 1-360), in the test with HA-iRhom1 [2], the binding entry is given as “binds”.

The values are drawn from PMC10766965.
